Laboratory results: patent US5409946A, “Isoxazole, isothiazole and pyrazole compounds that enhance cognitive function” (Abbott Laboratories, priority 1993, dated 1995)

Legend:
[1] = system: muscarinic receptors; type: binding, rat; settings: for Muscarinic Ki / Nicotinic Ki: ratio, selectivity for nicotinic over muscarinic receptor
Method: The potencies of ligand binding at central muscarinic binding sites were determined by analysis of competition with the specific muscarinic receptor radioligand [^3 H]-quinuclidinyl benzilate ([^3 H]-QNB). […] Competition between various concentrations of putative nicotinic ligand compounds and 0.2 nM [^3 H]-QNB was performed at 25° C. in an assay volume of 1 mL. After 75 minutes, the bound radioligand was separated by vacuum filtration on Whatman GF/B glass fiber filters. Non-specific binding was defined as radioactivity remaining in the presence of 10 μM atropine. Competition curves were analyzed for Ki values as described above for binding to the nicotinic receptor.

[2] = system: neuronal nicotinic cholinergic channels in PC12 cells; experiment: Cholinergic channel activator action in PC12 cells, whole-cell patch-clamp; type: cell-based, rat; settings: for Hill coefficient (n): PC12 cells, mean ± S.E.M.
Method: Electrophysiologic recordings were obtained from differentiated (neurite-bearing) cells after 4-7 days exposure to NGF. […] After 20 minutes, differentiating medium was added (DMEM containing 100 ng/ml nerve growth factor, 5% heat-inactivated fetal calf serum and 2.5% heat-inactivated horse serum) and the cells were refed with this medium every 3 days.
The intracellular (recording pipette) solution consisted of 140 mM KCl, 1.0 mM CaCl2, 2.0 mM MgCl2, 11 mM K-EGTA, and 10 mM K-HEPES buffer (7.3 pH, 315 mOsm). Osmolarities were adjusted using dextrose such that the extracellular solution was 10 mOsm hypertonic compared to the intracellular solution. Voltage-gated inward (sodium) and outward (potassium) currents were monitored throughout the experiment to determine establishment and maintenance of the whole-cell recording configuration.

COC(=O)C1=CCCN(C)C1 [Arecoline, reference compound]
Muscarinic Ki / Nicotinic Ki [1]: 85

Cc1cc([C@@H]2CCCN2C)on1.O=C(O)C(=O)O [Example 2, 3-Methyl-5-(1-methyl-2(S)-pyrrolidinyl)-isoxazole oxalate salt]
Hill coefficient (n) [2]: 1.18 ± 0.29
apparent potency less than that of (-)-nicotine ([2]; fold less potent than (-)-nicotine): about 4 fold
selectivity for nicotinic receptors relative to arecoline ([1]; compared with arecoline): 376 fold
Muscarinic Ki / Nicotinic Ki [1]: 32,000

CN1CCCC1c1cccnc1 (single isomer, unassigned; (-)) [(-)-Nicotine, reference compound]
Hill coefficient (n) [2]: 1.77 ± 0.18
